# Taken from: PubChem BioAssay AID686937 (Drosophila RNAi Screening Center, 2013)
# Screen: 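Knock-downs that reduce output of a secreted reporter enzyme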 (primary screen)
# System: Drosophila S2 cells expressing secreted horseradish peroxidase
# Reagents: long dsRNA against Drosophila genes
# Timing: about 5.5 days (5 days dsRNA, then 12 h reporter induction)
# Conditions: reporter expression induced after 5 days of dsRNA, read 12 h later; inducer not stated
# Detection: 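After 5 days of dsRNA and 12 h of reporter induction, medium peroxidase read by chemiluminescence and scored as per-plate z-score; higher values mean more reporter released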
# Reading the numbers: z-score: higher = more reporter secreted into medium
# The screen tested about 23,000 reagents; shown is an unselected part of those with a known target gene and a result. 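Reduced-secretion tags in replicate 1 do not always agree with the z-scores; no criterion for assigning the tags was given.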 Reagents against one gene are numbered here. A plus sign joins genes that one reagent is predicted to hit. No sequences are given here. Not stated in the record: the amount of reagent.
gene,dsRNA no.,"z-score, replicate 1","z-score, replicate 2","z-score, replicate 3","z-score, replicate 4","phenotype, replicate 1"
hiro,1,-0.04,0.21,,,
YME1L,1,-0.1,-0.19,,,
CG13004,1,0.24,0.3,,,
Fancd2,1,0.05,0.3,,,
Fancd2,2,-1.1,-0.26,,,
Gabat,1,0.17,0.27,,,
Pxn,1,-0.88,0.06,0.31,-0.55,reduced secretion
l(3)mbn,1,0.27,0.07,,,
HIP + HIP-R,1,0.28,0.19,,,
CG34011,1,0.04,0.28,,,
CG43058,1,-0.51,0.07,,,
CG12836,1,0.49,0.46,,,
maf-S,1,0.39,0.32,,,
mv,1,0.33,0.16,,,
mv,2,0.44,0.4,,,
sowi,1,0.14,0.3,,,
CG4830,1,0.67,0.51,,,
Ost48,1,-0.46,-0.63,,,
CG31249,1,0.51,0.46,,,
CG12035,1,0.37,0.33,,,
CG18675,1,-0.87,-0.12,,,
Paris,1,0.17,0.22,,,
CG4691,1,0.43,0.05,,,
CG34426,1,0.3,0.37,,,
CG8665,1,0.54,0.45,,,
Tom,1,0.59,0.58,,,
wdp,1,0.21,0.17,,,
ms(2)35Ci,1,0.62,0.55,,,
CG31343,1,0.35,-0.04,,,
CG12661,1,-0.22,-0.04,,,
CG33770,1,0.01,0.42,,,
CG13067,1,0.38,0.32,,,
CG4287,1,0.13,0.44,,,
stumps,1,0.49,0.57,,,
stumps,2,0.48,0.34,,,
stumps,3,0.27,0.45,,,
Dd,1,0.22,0.67,,,
Coq6,1,0.19,0.28,,,
Eato,1,0.32,0.38,,,
Eato,2,0.1,0.15,,,
CG14196,1,0.41,0.33,,,
snRNA:U1:95Cc + snRNA:U1:95Cb,1,0.81,0.93,,,
RIC-3,1,0.23,0.26,,,
RIC-3,2,0.05,0.25,,,
CG13170,1,0.15,0.06,,,
CG31103,1,0.14,-0.25,,,
CG7810,1,0.3,0.3,,,
Snx21,1,0.37,0.51,,,
CG9806,1,0.26,0.61,,,
Dh44,1,0.41,-0.6,,,
Dh44,2,0.35,0.74,,,
xit,1,0.54,0.59,,,
Gr93c,1,0.29,0.52,,,
ttk,1,0.16,0.42,,,
ttk,2,0.6,0.54,,,
PGRP-SC2,1,0.16,0.38,,,
CG18754,1,0.49,0,,,
Ipk1,1,0.7,0.61,,,
Ipk1,2,0.17,0.37,,,
Ipk1,3,0.28,0.5,,,
mop,1,0.21,0.26,,,
D,1,0.23,0.49,,,
ATPsynF,1,-0.22,-0.46,,,
CG5902,1,0.14,0.15,,,
CG32087,1,0.11,0.24,,,
CG5071,1,0.26,0.3,,,
CG5071,2,0.3,-7.19,,,reduced secretion
CG14194,1,-0.08,0.17,,,
upd1,1,0.18,0.53,,,
CG11413 + CG4622,1,0.16,0.33,,,
SPoCk,1,0.3,0.3,,,
SPoCk,2,0.8,0.71,,,
SPoCk,3,0.23,0.24,,,
SPoCk,4,0.4,0.2,,,
Or43b,1,0.24,0.21,,,
CG11596,1,0.27,0.32,,,
CG11594,1,0.2,0.2,,,
tex,1,-0.39,0.13,,,
fln,1,0.24,0.16,,,
Shaw,1,0.01,0.14,,,
Shaw,2,0.62,0.25,0.04,0.43,
Shaw,3,1.33,-0.44,,,
